The target in one assay is HA-FAM40A (human) (UniProt Q5VSL9). As to the kind of experiment: co-IP; COS7 cells co-transfected with pHA-FAM40A or pHA-FAM40B and pmyc-CCM3, lysed after 48 h; lysates pre-cleared with non-immune IgG agarose, incubated with mouse anti-HA agarose beads 3 h at 4 °C; washed with IP lysis buffer containing 250 mM NaCl; immunoblot with anti-myc; empty vector (pDESTHA) as control.

By UniProt entry, the sequences of proteins in these tests, tags left out.
UniProt Q5VSL9: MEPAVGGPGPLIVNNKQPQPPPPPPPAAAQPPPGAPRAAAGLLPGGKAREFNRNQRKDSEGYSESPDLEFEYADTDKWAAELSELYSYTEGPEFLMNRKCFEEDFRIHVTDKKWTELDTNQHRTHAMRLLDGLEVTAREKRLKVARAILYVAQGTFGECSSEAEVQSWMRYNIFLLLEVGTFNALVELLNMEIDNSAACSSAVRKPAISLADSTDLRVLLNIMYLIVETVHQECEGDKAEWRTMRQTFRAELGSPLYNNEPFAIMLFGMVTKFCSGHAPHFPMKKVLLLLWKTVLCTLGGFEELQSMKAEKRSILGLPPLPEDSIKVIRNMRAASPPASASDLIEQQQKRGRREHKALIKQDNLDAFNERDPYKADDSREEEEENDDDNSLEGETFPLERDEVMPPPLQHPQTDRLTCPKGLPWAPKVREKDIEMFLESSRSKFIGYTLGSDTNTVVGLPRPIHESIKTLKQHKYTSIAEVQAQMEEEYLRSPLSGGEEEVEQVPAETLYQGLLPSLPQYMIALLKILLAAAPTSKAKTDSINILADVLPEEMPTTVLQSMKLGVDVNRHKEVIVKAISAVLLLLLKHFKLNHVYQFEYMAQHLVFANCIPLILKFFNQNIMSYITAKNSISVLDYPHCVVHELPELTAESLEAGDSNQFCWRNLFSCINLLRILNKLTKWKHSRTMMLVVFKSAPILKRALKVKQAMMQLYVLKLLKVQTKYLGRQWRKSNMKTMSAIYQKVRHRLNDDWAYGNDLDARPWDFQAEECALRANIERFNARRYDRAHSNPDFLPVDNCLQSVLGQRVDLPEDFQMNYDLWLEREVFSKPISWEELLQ
UniProt Q9ULQ0: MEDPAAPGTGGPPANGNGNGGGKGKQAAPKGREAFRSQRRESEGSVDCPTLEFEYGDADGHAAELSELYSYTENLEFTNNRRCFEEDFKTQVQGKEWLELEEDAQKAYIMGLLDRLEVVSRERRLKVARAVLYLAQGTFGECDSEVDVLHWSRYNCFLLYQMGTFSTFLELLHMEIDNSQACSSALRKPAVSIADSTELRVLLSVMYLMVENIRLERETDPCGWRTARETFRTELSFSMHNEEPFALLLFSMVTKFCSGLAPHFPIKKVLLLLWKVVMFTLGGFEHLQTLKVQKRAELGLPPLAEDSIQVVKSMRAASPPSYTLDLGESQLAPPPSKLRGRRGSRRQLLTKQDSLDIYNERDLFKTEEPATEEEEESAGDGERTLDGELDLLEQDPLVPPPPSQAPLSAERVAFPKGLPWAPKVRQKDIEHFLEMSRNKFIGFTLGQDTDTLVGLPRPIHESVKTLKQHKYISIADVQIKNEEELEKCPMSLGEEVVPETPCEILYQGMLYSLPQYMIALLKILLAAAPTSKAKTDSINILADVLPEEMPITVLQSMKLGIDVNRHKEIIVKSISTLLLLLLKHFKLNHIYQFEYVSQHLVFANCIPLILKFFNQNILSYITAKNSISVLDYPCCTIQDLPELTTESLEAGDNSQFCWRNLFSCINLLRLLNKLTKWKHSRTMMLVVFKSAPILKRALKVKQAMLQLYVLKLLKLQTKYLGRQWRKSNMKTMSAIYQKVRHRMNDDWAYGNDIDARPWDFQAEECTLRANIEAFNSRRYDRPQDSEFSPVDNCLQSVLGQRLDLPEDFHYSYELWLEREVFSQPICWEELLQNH
UniProt Q9BUL8: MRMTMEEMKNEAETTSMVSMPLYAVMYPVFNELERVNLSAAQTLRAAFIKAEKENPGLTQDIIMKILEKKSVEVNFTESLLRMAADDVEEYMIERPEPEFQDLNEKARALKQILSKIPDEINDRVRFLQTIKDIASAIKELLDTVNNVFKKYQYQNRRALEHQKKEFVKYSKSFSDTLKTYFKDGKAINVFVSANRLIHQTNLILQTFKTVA

The target in a further assay is HA-FAM40B (human) (UniProt Q9ULQ0). Described as above.

No constants are given. Whether binding was seen depends on the method and setting. In cells and extracts the contact can be indirect. Some binding calls cover weakened binding; strength is not graded here.

As to myc-CCM3 (from UniProt Q9BUL8 1-212), the binding entry with HA-FAM40A (human) and with HA-FAM40B (human) was “binds” in each case.

The values above are taken from publication PMC6276190.
